Laboratory results reported in PubChem BioAssay AID1458 (National Center for Advancing Translational Sciences (NCATS), 2008).
About 5,900 (2.8%) of roughly 210,000 compounds were called active. Another 5% or so got no clear call; they are omitted. The call rests on the fitted dose curve; in most records, active means well fitted activation curve with a large enough effect; inconclusive means small, poorly fitted or top-dose-only effect; inactive means no such curve, though single readings can be large or run the other way. The entries are a selection whose mix differs from that of the whole data set. Entries without a call were filed so in the source.

experiment: qHTS Assay for Enhancers of SMN2 Splice Variant Expression; settings: HEK293 SMN2-luciferase splicing reporter, luminescence, 30-36 h; activity change, positive = activation: at 46.1 µM (top of the series) unless noted; further: nearly all actives have a fitted effect of over 55% in size; on activity change, positive = activation: % of control where 0% means no effect
How it was run: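 HEK293 cells carry an SMN2 […]–luciferase reporter in which exon 7 inclusion puts luciferase in frame. Cells were plated 10-12 h before compound addition, then incubated 30-36 h at 37C. ONE-Glo luminescence was read; sodium butyrate at 4.5 mM final served as control.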
Potency means the concentration at half of the fitted maximal effect.

SMILES	activity change, positive = activation	Potency
CC(C)OCCCNC(=O)c1ccc(NS(C)(=O)=O)cc1	38.2%	
CN(C)c1ccc(N=Nc2cccc3ccoc23)cc1		active: 3.55 µM
Fc1ccc(/C=C/c2nnc(-c3cccs3)o2)cc1		active: 12.6 µM
CC(C)CC(N=C1NC(C)(C)Cc2ccccc21)C(=O)O (stereo unspecified)	-55%	
CC1(C)CC(CCC(=O)Nc2ccccc2Cl)C(=O)O1 (stereo unspecified)	30%	
O=C(c1ccco1)N1CCN(C(c2ccccn2)c2nnnn2C2CCCC2)CC1 (stereo unspecified)		active: 12.6 µM
CCC(C)NC(=O)CN1C(=O)NC2(CCc3ccccc3C2)C1=O (stereo unspecified)	inactive: 29.6%	
CCOC(=O)c1c(NC2OC(=O)c3c2ccc(OC)c3OC)sc(C(=O)OC(C)(C)C)c1C (stereo unspecified)	57.2%	
c1ccc(Cn2nnc3c(N4CCN(Cc5ccc6c(c5)OCO6)CC4)ncnc32)cc1	-30.5%	
Cc1ccccc1C(=O)Nc1c(C)nc(Nc2ccccc2)nc1Nc1ccccc1	inactive: -38.1%	
O=[N+]([O-])c1nn(-c2ccc(Cl)cc2)n(O)c1=NCc1ccccc1Cl	44.4%	
CCOc1ccc(Nc2nnc(-n3nc(C)cc3C)c3ccccc23)cc1	30.7%	
O=C(Nc1ccccn1)NC1CCCCC1	35.1%	
O=C(Nc1ccc(N2CCN(C(=O)c3ccccc3)CC2)cc1)c1ccc2c(c1)OCO2	inactive: -61%	
CC(Nc1cccnc1)=C(C#N)C#N	15.7%	
CC(C)=NOc1nc(N(C)C)nc(N(C)C)n1	15.4%	
Clc1ccc(OCCn2cnc3ccccc32)cc1	inactive: -33.1%	
O=C(O)c1ccc2c(c1)C(=O)N(c1cc(C(=O)O)ccc1Br)C2=O	31.9%	
Cc1ccc(/C=N/NC(=O)c2ccccn2)s1		active: 3.98 µM
CC(=O)Nc1ccc(NC2=C(Cl)C(=O)c3ccccc3C2=O)cc1	-92.7%	
CCOC(=O)Cc1csc(NS(=O)(=O)Cc2ccccc2)n1	38.3%	
CCCn1c(NCc2ccc(N(CC)CC)cc2)nc2ccccc21	inactive: -50.8%	
O=C(CSc1nnc(C2COc3ccccc3O2)o1)N1CCCC1 (stereo unspecified)	50.2%	
COC(=O)c1ccc2c(=O)n(CCN3CCOCC3)c(SCC(=O)NCc3ccccc3)nc2c1	inactive: -31.7%	

SMILES	activity change, positive = activation	Potency
CC1(C)CC(NC(=O)CC(c2ccccc2)c2ccccc2)CC(C)(C)N1	61%	
CC(C)C(C)(C#N)NC(=O)CSc1ncnc2sc(-c3ccccc3)cc12 (stereo unspecified)	-57.1%	
Cc1ccc(C)n1-c1ccc(C(=O)Nc2ccccc2F)cc1	95.5%	
CCS(=O)(=O)c1ccc2oc(Nc3ccc(OC)cc3)nc2c1	inactive: 2.88%	
COC(=O)[C@@H]1C[C@H]1[C@@H](NS(=O)(=O)c1ccc(-c2ccccc2)cc1)c1ccccc1	inactive: -56.8%	
COc1ccc(OC)c(-c2nc3c(C)n[nH]c(=O)c3[nH]2)c1	inactive: -38.2%	
CC(Sc1nnc(-c2cccs2)n1-c1ccccc1)C(=O)NCc1ccco1 (stereo unspecified)	37.5%	
COC(=O)c1ccc(C2C(C#N)=C(N)Oc3cc(C)n(C)c(=O)c32)cc1 (stereo unspecified)	33%	
Cc1cccc(NC(=O)CC(C)(C)C)c1	40%	
COc1ccccc1NC(=O)N1CCCC1C(=O)NCc1ccccc1F (stereo unspecified)		active: 6.31 µM
COCCNC(=O)CCCn1c(SCc2ccccc2Cl)nc2c(sc3ccccc32)c1=O	31.9%	
Clc1ccc(-c2nc3n(n2)Cc2ccccc2-3)cc1		active: 0.501 µM
O=C(COc1cccc2c1CCN(Cc1ccccc1)C2=O)NCc1ccco1	8.6%	
CCCCN(CCCC)C(=O)CSc1nnc2n(C)c(=O)c3c4c(sc3n12)CCCC4	inactive: -56.5%	
CCCn1c(SCC(=O)Nc2nc3ccccc3s2)nc2c1c(=O)n(C)c(=O)n2C	-36.6%	
CC(C)N(Cc1nc(-c2ccc(Cl)cc2)no1)C(=O)c1cccs1	-39.8%	
N#Cc1ncc(C(F)(F)F)cc1Sc1ccc(N)cc1	-31.4%	
Cc1ccc(C(=O)CSc2cc(C)nc(SCC(=O)c3ccccc3)n2)cc1	-35.2%	
COC(=O)c1c(N)nc(C)n1-c1ccc(OC)cc1	14.8%	
CCn1c(CC(=O)Nc2ccc(C)c(Cl)c2)nnc1SCC(=O)Nc1nc(C)cs1	52.2%	
COc1cc(NC(=S)NNC(=O)CC(C)C)c(OC)cc1Cl	-0.815%	
Clc1ccc2nc(CSCc3ccccc3)cn2c1		active: 12.6 µM
Cc1cccc(OCc2nnc(N)s2)c1	59.7%	
Cc1ccc2c(CN3CCC(C)CC3)cc(=O)oc2c1		active: 14.1 µM

SMILES	activity change, positive = activation	Potency
Cc1ccccc1NS(=O)(=O)c1ccc(F)cc1	33.2%	
O=S(=O)(c1ccccc1)N1CCN(Cc2ccccc2C(F)(F)F)CC1	56.1%	
c1ccc(NCCCNc2ccccc2)cc1	54.4%	
CCCCCS(=O)(=O)CCCCCCCCCCn1c(-c2ccc(O)cc2)c(C)c2cc(O)ccc21	inactive: -114%	
CC1=CC(C)(C)NC(=S)N1c1ccc(C)cc1C	-96%	
Cc1cnc(NC(=O)C2CCCC2)s1		active: 14.1 µM
CCCN(CCO)Cc1cccc(Oc2ccccc2)c1	39%	
C/C(=N\NC(=O)c1ccncc1)c1cccs1	31.3%	
COCCn1c(C)cc(C(=O)CSc2ccc3ccccc3n2)c1C		active: 11.2 µM
COc1ccc(NC(=O)c2ccc3c(=O)n(-c4ccc(OC)cc4OC)c(=S)[nH]c3c2)c(OC)c1	inactive: -40.4%	
CCOc1ccc2cc(S(=O)(=O)n3ccnc3C)ccc2c1	42.6%	
CCOC(=O)c1c(NC(=O)c2cccs2)sc2c1CCCC2	35.9%	
O=[N+]([O-])c1cc(-c2nc(-c3ccncc3)no2)cc([N+](=O)[O-])c1	37.6%	
CCOC(=O)Nc1ccc2c(C)cc(=O)oc2c1		active: 14.1 µM
COc1ccc(CNC(=O)C2COc3ccccc3O2)cc1 (stereo unspecified)		active: 12.6 µM
CCN(CC)CCCNC(=O)c1[nH]c(C)c(C(=O)NC2CCCCC2)c1C	30.4%	
CCc1ccc(OCCOCC(O)CN2CCN(Cc3ccc(Cl)cc3)CC2)cc1 (stereo unspecified)	inactive: -60.4%	
Cc1ccc(C(=O)/C=C/Nc2cccc([N+](=O)[O-])c2)o1		active: 14.1 µM
COc1ccc(Nc2ncc(F)c(N3CCOCC3)n2)cc1		active: 10 µM
COc1ccc(NC(=O)C23CCC(C)(C(=O)O2)C3(C)C)cc1 (stereo unspecified)	25.1%	
CCN(C(=O)COC(=O)c1ccc(COc2ccc3c(C)cc(=O)oc3c2)cc1)C1CCS(=O)(=O)C1 (stereo unspecified)	77.1%	
O=C(CSc1ncn[nH]1)NC1CC2CCC1C2 (stereo unspecified)	27.1%	
CNc1nc2sc3c(c2c(=O)n1C)CC(C)(C)SC3	inactive: -30.2%	

Some of the entries above, reformatted:
SMILES | activity change, positive = activation | Potency
O=S(=O)(c1ccccc1)N1CCN(Cc2ccccc2C(F)(F)F)CC1 | 56.1% | 
C/C(=N\NC(=O)c1ccncc1)c1cccs1 | 31.3% | 
CCN(CC)CCCNC(=O)c1[nH]c(C)c(C(=O)NC2CCCCC2)c1C | 30.4% | 
